Among the data in paper PMC6974163 are binding values, retold here.

Results are given in words; binding and its absence hold for the method and conditions named. For some of these results: In cells and extracts the contact can be indirect. Some binding calls cover weakened binding; strength is not graded here. Where a sequence is shown, tags or fusion partners need not be part of it.

Experiment [1] has as its target T1, full-length TMEM98-FLAG (murine, amino acids 1-226) (mouse) (UniProt Q91X86).
T1 sequence: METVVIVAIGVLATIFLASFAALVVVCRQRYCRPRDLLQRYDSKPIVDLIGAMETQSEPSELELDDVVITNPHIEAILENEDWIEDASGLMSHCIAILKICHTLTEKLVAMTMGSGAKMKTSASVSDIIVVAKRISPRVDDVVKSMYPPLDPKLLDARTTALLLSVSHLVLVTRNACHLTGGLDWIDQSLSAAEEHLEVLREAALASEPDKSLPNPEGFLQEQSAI
Put plainly: co-IP; lysates of transiently transfected HEK293TN cells; anti-FLAG (M2) antibody at 4°C, protein G sepharose, washes in RIPA buffer; Western blot. Background: A western blot detects proteins with antibodies after separation by electrophoresis.

Experiment [2] has as its target T2, full-length murine FRAT2 (amino acids 1-232), LexA fusion bait (mouse) (UniProt Q8K025).
T2 sequence: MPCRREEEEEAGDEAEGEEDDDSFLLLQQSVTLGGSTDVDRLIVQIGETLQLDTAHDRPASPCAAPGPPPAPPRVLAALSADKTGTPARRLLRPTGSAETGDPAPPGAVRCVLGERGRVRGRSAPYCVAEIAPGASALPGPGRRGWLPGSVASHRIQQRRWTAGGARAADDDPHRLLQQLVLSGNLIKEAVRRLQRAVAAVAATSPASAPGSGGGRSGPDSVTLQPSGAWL
Put plainly: two-hybrid; Hybrigenics screen; LexA fusion of full-length Frat2 as bait in L40ΔGAL4 yeast, mated with a human fetal brain random-primed cDNA library in Y187 yeast; selection on medium lacking leucine, tryptophane and histidine; no auto-activation of the bait; 95 million interactions tested.

In experiment [3] the target is T3, FRAT2ΔN (murine Frat2 amino acids 139-232), LexA fusion bait (mouse) (UniProt Q8K025).
T3 sequence: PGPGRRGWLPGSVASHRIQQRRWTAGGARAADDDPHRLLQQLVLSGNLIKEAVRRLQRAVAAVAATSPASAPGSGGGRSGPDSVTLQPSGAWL
The experiment is described as follows: two-hybrid; Hybrigenics screen; LexA fusion of Frat2ΔN as bait in L40ΔGAL4 yeast, mated with a human fetal brain random-primed cDNA library in Y187 yeast; selection on medium lacking leucine, tryptophane and histidine; bait auto-activates, 50 mM 3-aminotriazole; 87 million interactions tested.

B1: myc-FRAT1 (protein, UniProt P70339 1-274)
chain: MPCRREEEEEAGDEAEGEEDDDSFLLLQQSVTLGGSTDVDQLIVQIGETLQLDAAHDRPASPCAAPGPPPPQVLAALPADKTGTPARRLLRPTGSAETGNPAPPGAVRCVLGERGRVRGRSAPYCVAEISPGASALPQQPGLDGPPGTGKLSTPQPLSGPCRRGWLRNAAASRRLQQRRGSQPETRTGDDDDPHRLLQQLVLSGNLIKEAVRRLHSRQLQLHAKLPAHPFLGPLSAPVHEPPSPGSPRAACSDPGAFMGRAQLRTGDDLLVPGS
Take B1: in experiment [1], the binding result is on record as “binds”.

B2: TMEM98 (human), prey clones of the yeast two-hybrid screens (domain or fragment, UniProt Q9Y2Y6 66-226)
chain: DVVITNPHIEAILENEDWIEDASGLMSHCIAILKICHTLTEKLVAMTMGSGAKMKTSASVSDIIVVAKRISPRVDDVVKSMYPPLDPKLLDARTTALLLSVSHLVLVTRNACHLTGGLDWIDQSLSAAEEHLEVLREAALASEPDKGLPGPEGFLQEQSAI
Take B2: the binding entry in experiment [2] and in experiment [3] was “binds” in each case.

B3: myc-FRAT2 (protein, UniProt Q8K025 1-231)
chain: T2 sequence
Consider B3, for which, in experiment [1], the binding result was “binds”.
